Reference: patent publication US20200199528A1, “CELL CULTURE MEDIA FOR DIFFERENTIATION OF STEM CELLS INTO HEPATOCYTES” (KATHOLIEKE UNIVERSITEIT LEUVEN, priority 2017, published 2020)

Key:
HepG2 cells = tested on: HepG2 cells
Description: PSC, HC3X and HC6X cells were differentiated in a 384 well format. Cells were treated with 14 different concentrations of compounds in 6 repeats. As a negative control 41 wells were left untreated. After 24 h of exposure media was aspirated and fresh media was added to the cells supplemented with […] of DRAQ 7 (Abcam; ab109202) and Hoechst dye (1/1000, Sigma, 33258) for 25 min at 37°. Cells were fixed with 4% paraformaldehyde. Imaging was done using an Operetta High-Content Imaging System (Perkin Elmer) and image analysis was performed using Harmony software (Perkin Elmer). Relative cell number was calculated as the percentage of living cells (draq7 positive amount subtracted from the Hoechst positive amount) relative to the average of living cells in the control wells. As a positive control, 2 donors of PHHs were seeded at 10 000 cells per well. Drugs were administrated after 8 hours of attachment. HepG2 cells were seeded at 40 000 cells per well. For control conditions HepG2 cells were exposed after 2 days of culture.

CCCCc1oc2ccccc2c1C(=O)c1cc(I)c(OCCN(CC)CC)c(I)c1 [amiodarone]
Toxicity (HepG2 cells): not able to pick up toxicity
Toxicity (HC6X cells): no toxicity
